The supplement of paper PMC8728848
The list shows a part of the results.

Columns and labels:
Assay in all cases: glycan array binding signal (z-score within array); higher = stronger binding
Details in all cases: glycan notation: IUPAC condensed, linker removed
[1] = molecular target: Neu5Ac(a2-6)Gal(b1-4)GlcNAc(b1-6)[Gal(b1-3)GlcNAc(b1-3)]Gal(b1-4)Glc
Outline: (§1)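 The binding signal is a Z-score computed within each array. Data were drawn from 3228 arrays in the Consortium for Functional Glycomics database, restricted to those with a known protein sequence. Scores were averaged over arrays of the same protein sequence at different concentrations or buffers, and over linkers, and negative values can be taken as non-binding.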

[2] = molecular target: Neu5Ac(a2-6)Gal(b1-4)GlcNAc(b1-6)[Gal(b1-3)]GalNAc
Outline: as §1

[3] = molecular target: Neu5Ac(a2-6)Gal(b1-4)GlcNAc6S
Outline: as §1

Neu5Ac(a2-6)GalNAc = molecular target: Neu5Ac(a2-6)GalNAc
Outline: as §1

[4] = molecular target: Neu5Ac(a2-6)GalNAc(b1-4)GlcNAc
Outline: as §1

[5] = molecular target: Neu5Ac(a2-6)GalNAc(b1-4)GlcNAc6S
Outline: as §1

[6] = molecular target: Neu5Ac(a2-6)GlcNAc(b1-4)GlcNAc
Outline: as §1

[7] = molecular target: Neu5Ac(a2-6)GlcNAc(b1-4)GlcNAc(b1-4)GlcNAc
Outline: as §1

Neu5Ac(a2-8)Neu5Ac = molecular target: Neu5Ac(a2-8)Neu5Ac
Outline: as §1

[8] = molecular target: Neu5Ac(a2-8)Neu5Ac(a2-3)Gal(b1-3)GalNAc(b1-4)[Neu5Ac(a2-3)]Gal(b1-4)Glc
Outline: as §1

[9] = molecular target: Neu5Ac(a2-8)Neu5Ac(a2-3)Gal(b1-3)GalNAc(b1-4)[Neu5Ac(a2-8)Neu5Ac(a2-3)]Gal(b1-4)Glc
Outline: as §1

[10] = molecular target: Neu5Ac(a2-8)Neu5Ac(a2-3)Gal(b1-4)Glc
Outline: as §1

[11] = molecular target: Neu5Ac(a2-8)Neu5Ac(a2-3)Gal(b1-4)GlcNAc
Outline: as §1

[12] = molecular target: Neu5Ac(a2-8)Neu5Ac(a2-3)[Gal(b1-3)GalNAc(b1-4)]Gal(b1-4)Glc
Outline: as §1

[13] = molecular target: Neu5Ac(a2-8)Neu5Ac(a2-3)[GalNAc(b1-4)]Gal(b1-4)Glc
Outline: as §1

[14] = molecular target: Neu5Ac(a2-8)Neu5Ac(a2-8)Neu5Ac
Outline: as §1

[15] = molecular target: Neu5Ac(a2-8)Neu5Ac(a2-8)Neu5Ac(a2-3)Gal(b1-4)Glc
Outline: as §1

[16] = molecular target: Neu5Ac(a2-8)Neu5Ac(a2-8)Neu5Ac(a2-3)[Gal(b1-3)GalNAc(b1-4)]Gal(b1-4)Glc
Outline: as §1

[17] = molecular target: Neu5Ac(a2-8)Neu5Ac(a2-8)Neu5Ac(a2-3)[GalNAc(b1-4)]Gal(b1-4)Glc
Outline: as §1

[18] = molecular target: Neu5Ac(a2-8)Neu5Ac(a2-8)Neu5Ac(a2-8)Neu5Ac(a2-3)[GalNAc(b1-4)]Gal(b1-4)Glc
Outline: as §1

[19] = molecular target: Neu5Ac(a2-8)Neu5Gc(a2-3)Gal(b1-4)GlcNAc
Outline: as §1

[20] = molecular target: Neu5Ac(b2-6)Gal(b1-4)GlcNAc
Outline: as §1

Neu5Ac(b2-6)GalNAc = molecular target: Neu5Ac(b2-6)GalNAc
Outline: as §1

[21] = molecular target: Neu5Ac9Ac(a2-3)Gal(b1-3)GlcNAc
Outline: as §1

[22] = molecular target: Neu5Ac9Ac(a2-3)Gal(b1-4)GlcNAc
Outline: as §1

[23] = molecular target: Neu5Ac9Ac(a2-6)Gal(b1-4)GlcNAc
Outline: as §1

[24] = molecular target: Neu5Gc(a2-3)Gal(b1-3)GlcNAc
Outline: as §1

[25] = molecular target: Neu5Gc(a2-3)Gal(b1-3)[Fuc(a1-4)]GlcNAc
Outline: as §1

Neu5Gc(a2-3)Gal(b1-4)Glc = molecular target: Neu5Gc(a2-3)Gal(b1-4)Glc
Outline: as §1

[26] = molecular target: Neu5Gc(a2-3)Gal(b1-4)GlcNAc
Outline: as §1

[27] = molecular target: Neu5Gc(a2-3)Gal(b1-4)GlcNAc(b1-3)Gal(b1-4)GlcNAc(b1-2)Man(a1-3)[Neu5Gc(a2-3)Gal(b1-4)GlcNAc(b1-3)Gal(b1-4)GlcNAc(b1-2)Man(a1-6)]Man(b1-4)GlcNAc(b1-4)GlcNAc
Outline: as §1

[28] = molecular target: Neu5Gc(a2-3)Gal(b1-4)[Fuc(a1-3)]GlcNAc
Outline: as §1

[29] = molecular target: Neu5Gc(a2-6)Gal(b1-4)GlcNAc
Outline: as §1

Neu5Gc(a2-6)GalNAc = molecular target: Neu5Gc(a2-6)GalNAc
Outline: as §1

[30] = molecular target: Neu5Gc(a2-8)Neu5Ac(a2-3)Gal(b1-4)GlcNAc
Outline: as §1

[31] = molecular target: Neu5Gc(a2-8)Neu5Gc(a2-3)Gal(b1-4)GlcNAc
Outline: as §1

[32] = molecular target: Neu5Gc(a2-8)Neu5Gc(a2-3)Gal(b1-4)GlcNAc(b1-3)Gal(b1-4)GlcNAc
Outline: as §1

[33] = molecular target: Neu5Gc(a2-8)Neu5Gc(a2-6)Gal(b1-4)GlcNAc
Outline: as §1

[34] = molecular target: Neu5Gc(b2-6)Gal(b1-4)GlcNAc
Outline: as §1

B1: EfCBM33A (Enterococcus faecalis), Q838S1 (protein)
chain: MKKSLLTIVLAFSFVLGGAALAPTVSEAHGYVASPGSRAFFGSSAGGNLNTNVGRAQWEPQSIEAPKNTFITGKLASAGVSGFEPLDEQTATRWHKTNITTGPLDITWNLTAQHRTASWDYYITKNGWNPNQPLDIKNFDKIASIDGKQEVPNKVVKQTINIPTDRKGYHVIYAVWGIGDTVNAFYQAIDVNIQ
- glycan array binding signal (z-score) [1]: -0.451
- glycan array binding signal (z-score) [2]: -0.769
- glycan array binding signal (z-score) [3]: -0.224
- glycan array binding signal (z-score) (Neu5Ac(a2-6)GalNAc): -1.22
- glycan array binding signal (z-score) [4]: -1.24
- glycan array binding signal (z-score) [5]: -0.172
- glycan array binding signal (z-score) [6]: -0.597
- glycan array binding signal (z-score) [7]: -0.944
- glycan array binding signal (z-score) (Neu5Ac(a2-8)Neu5Ac): -0.561
- glycan array binding signal (z-score) [8]: 1.18
- glycan array binding signal (z-score) [9]: -0.396
- glycan array binding signal (z-score) [10]: -0.426
- glycan array binding signal (z-score) [11]: 0.799
- glycan array binding signal (z-score) [12]: -0.505
- glycan array binding signal (z-score) [13]: 0.518
- glycan array binding signal (z-score) [14]: 0.016
- glycan array binding signal (z-score) [15]: -0.635
- glycan array binding signal (z-score) [16]: -0.429
- glycan array binding signal (z-score) [17]: -1.41
- glycan array binding signal (z-score) [18]: -0.254
- glycan array binding signal (z-score) [19]: -0.601
- glycan array binding signal (z-score) [20]: -0.199
- glycan array binding signal (z-score) (Neu5Ac(b2-6)GalNAc): -0.971
- glycan array binding signal (z-score) [21]: 1.28
- glycan array binding signal (z-score) [22]: 1.53
- glycan array binding signal (z-score) [23]: -0.482
- glycan array binding signal (z-score) [24]: 0.529
- glycan array binding signal (z-score) [25]: 1.23
- glycan array binding signal (z-score) (Neu5Gc(a2-3)Gal(b1-4)Glc): -0.711
- glycan array binding signal (z-score) [26]: 0.624
- glycan array binding signal (z-score) [27]: -0.417
- glycan array binding signal (z-score) [28]: 0.222
- glycan array binding signal (z-score) [29]: -1.26
- glycan array binding signal (z-score) (Neu5Gc(a2-6)GalNAc): -0.798
- glycan array binding signal (z-score) [30]: -1.95
- glycan array binding signal (z-score) [31]: -1.75
- glycan array binding signal (z-score) [32]: -0.844
- glycan array binding signal (z-score) [33]: -0.736
- glycan array binding signal (z-score) [34]: 1.82
